Source: PubChem BioAssay AID504648 (National Center for Advancing Translational Sciences (NCATS), 2011)
Screen size: about 390,000 compounds; about 610 (0.16%) were called active. The shares of active, inactive and inconclusive entries below differ from those in the screen. Calls come from the whole dose curve; as a rule, active = well fitted inhibition curve with a large enough effect; inconclusive = small, poorly fitted or top-dose-only effect, or effect the other way, or another doubt; inactive = no such curve, though single readings can be large or run the other way. Potencies of inconclusive entries are doubtful fits and often do not repeat.

Assay: Nrf2 qHTS screen for inhibitors: counterscreen for cytotoxicity
Conditions: A549 ARE-Fluc cells, CellTiter-Fluor viability, 18-24 h; activity change, negative = cytotoxicity: at 46 µM (top of the series)
In short: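 Cytotoxicity counterscreen: CellTiter-Fluor fluorescence was measured in A549 ARE_Fluc cells after 18-24 h of compound exposure in a concentration series. The subsequent BugLite luminescent read reports ARE-luciferase activity.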
% is set by controls: 0 for no effect and ±100 for the full control effect; potency is the fitted concentration of half-maximal effect.

SMILES	Potency	activity change, negative = cytotoxicity
COc1ccc(-c2cc(C3CCN(c4ccc(C(C)=O)cc4[N+](=O)[O-])CC3)[nH]n2)cc1	inconclusive: 20.6 µM [falling, single point]	
O=c1cc(C(F)(F)F)[nH]c2ccc(OC(F)(F)F)cc12	inconclusive: 29.1 µM [falling, single point]	
CC(=O)N1CCN(c2cc(N3CCc4ccccc4C3)c(F)cc2[N+](=O)[O-])CC1	inconclusive: 25.9 µM [falling, single point]	
Cc1nn(Cc2ccc(C(=O)N3N=C(C(F)F)CC3(O)C(F)F)o2)c(C)c1[N+](=O)[O-] (centres undefined)		inactive: -0.122%
O=c1c(Sc2ccccc2)c(C(F)(F)F)[nH]n1-c1ccccc1	inconclusive: 16.4 µM [falling, single point]	
O=C(NCCCc1nc2ccccc2n1CCCCOc1ccccc1)C1CCCCC1	inconclusive: 23.1 µM [falling, partial curve, poor fit]	
COc1ccc(CCNC(=O)c2cnc3sc(N4CCOCC4)nn3c2=O)cc1OC		inactive: 7.16%
CC(C)(C)C1CCc2c(sc(NC(=O)CSc3ncn[nH]3)c2C#N)C1 (centres undefined)	inconclusive: 20.6 µM [falling, single point]	
CCCOc1cccc(C(=O)NC(=S)Nc2ccccc2)c1	inconclusive: 16.4 µM [activator, partial curve, poor fit]	
COc1ccccc1Nc1c2c(nc3ccc(NC(=O)/C=C/c4cc(OC)c(OC)c(OC)c4)cc13)CCCC2	inconclusive: 29.1 µM [falling, single point]	
C#CCNC(=O)C1=C[C@@H](C)[C@H](CCCO)[C@@H](OCC)O1		inactive: 7.19%
CCN(CC)C(=O)CSc1nc2c(sc(=S)n2-c2ccccc2)c(=O)n1-c1ccccc1OC	inconclusive: 29.1 µM [falling, single point]	
Cc1ccc(O)c(-c2cc(-c3ccccc3C)[nH]n2)c1	inconclusive: 32.6 µM [falling, single point]	
CCOC(=O)c1ccc(NC(=S)N2CCSC2c2ccc(OC)cc2)cc1 (centres undefined)		inactive: -3.32%
Cc1cccc(NC(=O)CSCC(=O)Nc2ccccc2N2CCCCC2)c1	inconclusive: 32.6 µM [falling, partial curve, poor fit]	
O=C(COC(=O)CCN1C(=O)c2ccccc2C1=O)Nc1ccccc1[N+](=O)[O-]		inactive: 5.94%
COc1ccc(-c2c/c(=N\c3nc(-c4ccccc4)c(C)s3)c3ccccc3o2)cc1O	inconclusive: 23.1 µM [falling, single point]	
CC(=O)/C(N)=N/Nc1cccc(Cl)c1		inactive: -3.13%
CCCCSc1nnc2c(n1)[nH]c1ccccc12	inconclusive: 25.9 µM [falling, single point]	
COc1ccc(-c2cc(C3CCN(c4ncccc4[N+](=O)[O-])CC3)[nH]n2)cc1	inconclusive: 25.9 µM [falling, single point]	
COc1ccc(Cl)cc1NC(=O)CN(C)C(=O)c1ccc(N2CCCCC2)c([N+](=O)[O-])c1	inconclusive: 29.1 µM [falling, partial curve, poor fit]	
Cc1cc(=O)n(Cc2ccccc2Cl)c2c1c(C)nn2-c1ccccc1		inactive: 7.09%
COc1cc(OC)cc(C(=O)N[C@H](C(=O)Nc2nc3c(s2)CCCC3)C(C)C)c1		inactive: -16.9%

SMILES	Potency	activity change, negative = cytotoxicity
O=[N+]([O-])c1cc(CN2CCN(c3cccc(C(F)(F)F)c3)CC2)c2cccnc2c1O	inconclusive: 20.6 µM [falling, single point]	
Cn1cc(C(=O)c2ccc(Cl)cc2Cl)cc1C(=O)N/N=C(\N)COc1ccc(F)cc1		inactive: -19.7%
CCOc1ccccc1OCCN1CCC(Cc2ccccc2)CC1	inconclusive: 29.1 µM [falling, single point]	
Cc1cc2nc(C3CCN(CC4COc5ccccc5O4)CC3)[nH]c2cc1C (centres undefined)	inconclusive: 11.6 µM [falling, partial curve, poor fit]	
C=CC[n+]1c(-c2ccc(Cl)cc2Cl)csc1Nc1c(C)n(C)n(-c2ccccc2)c1=O		inactive: -19.2%
Cc1cccc(NC(=S)N/N=C/c2ccc([N+](=O)[O-])s2)c1	inconclusive: 35.5 µM [falling, single point]	
COc1cc2c(C)nc3onc(-c4ccccc4)c3c2cc1OC	inconclusive: 16.4 µM [falling, partial curve]	
COc1ccccc1NS(=O)(=O)c1cccc(C(=O)NC2CCN(Cc3ccccc3)CC2)c1	inconclusive: 32.6 µM [falling, partial curve, poor fit]	
COc1cccc(-c2nc(NC(C)(C)C)c3ccccc3n2)c1O	inconclusive: 25.9 µM [falling, single point]	
CCOc1ccc(-n2c(Cc3ccccc3)nnc2SCc2nc(-c3cccs3)no2)cc1	inconclusive: 29.1 µM [falling, single point]	
CCCCN(CCCC)C1=C(C(=O)c2ccccc2)N(CC)S(=O)(=O)c2ccccc21	inconclusive: 23.1 µM [falling, single point]	
C/C(=N\NC(=S)Nc1cccc(C)c1)c1cc2ccccc2o1		inactive: -5.6%
Cc1cccc(C(=O)NCC(=O)OCc2nnc(-c3ccccc3)o2)c1		inactive: -9.77%
COC(=O)C1=C(C)NC2=C(C(=O)CCC2)C1c1cn(Cc2ccc(Cl)cc2Cl)nc1-c1ccccc1 (centres undefined)	inconclusive: 16.4 µM [falling, partial curve]	
CN(C)c1ccc(CN(Cc2ccco2)C(=O)c2ccco2)cc1		inactive: -1.52%
CC(C)CC(C)NNC(=O)c1cc2ccccc2[nH]1 (centres undefined)		inactive: 17.2%
COc1c(OC(C)=O)ccc(/C=C/c2ccc3cccc(OC)c3n2)c1[N+](=O)[O-]	inconclusive: 20.6 µM [falling, single point]	
CCC[n+]1c(C)sc2c3c(ccc21)CCCC3	inconclusive: 29.1 µM [falling, single point]	
Cc1ccc(S(=O)(=O)N/N=C/c2ccc(OS(=O)(=O)c3ccc(C)c([N+](=O)[O-])c3)cc2)cc1	inconclusive: 16.4 µM [falling, single point]	
CSCCC(NS(=O)(=O)c1ccc2c(c1)OCCO2)C(=O)N(C)Cc1ccc(C)cc1 (centres undefined)		inactive: -10.6%
Nc1cccc2c1C(=O)N(Cc1cccc(Cl)c1)C2=O	inconclusive: 23.1 µM [activator, single point]	
COc1ccc(S(=O)(=O)c2cc3cc(OC)ccc3oc2=O)cc1		inactive: -5.22%
Cc1ccc(C)c(Nc2nc3c(S(=O)(=O)c4ccc(Br)cc4)nnn3c3ccsc23)c1	inconclusive: 18.4 µM [falling, partial curve, poor fit]	

SMILES	Potency	activity change, negative = cytotoxicity
O=C(Cn1cnc2ccccc2c1=O)N1CCN(Cc2ccccc2)CC1		inactive: -1.09%
CC1(C)CC(N2CCN(C(c3ccccc3)c3ccccc3)CC2)=CC(=[N+]2CCCCC2)C1	inconclusive: 1.16 µM [falling, full curve]	
Cn1c(=O)c2c(-c3ccccc3Cl)n(Cc3ccc(Cl)cc3)cc2n(C)c1=O		inactive: 2.94%
CCN1/C(=C/c2ccc3cc(C)cc(C)c3[n+]2CC)Sc2cc(C)ccc21	active: 16.4 µM	
COc1ccc(-c2nnc(OC)c3ccccc23)cc1	inconclusive: 6.51 µM [falling, partial curve, poor fit]	
CC(=O)Nc1ccc(S(=O)(=O)N2CCC(n3cnc4cc(F)ccc43)CC2)cc1		inactive: -1.23%
Cc1cc(=O)n2[nH]c(=O)c(N=Nc3ccccc3)c2[nH]1	inconclusive: 23.1 µM [falling, single point]	
CCOc1ccc(CNCc2c(C(=O)O)n(Cc3ccc(OC)cc3)c3ccccc23)cc1	inconclusive: 23.1 µM [falling, single point]	
COC(=O)c1ccccc1NC(=O)Cn1c(SC)c(F)cnc1=O	inconclusive: 18.4 µM [activator, single point]	
CCOC(=O)Cc1csc(NC(=O)CSc2nnc(-n3nc(C)cc3C)c3ccccc23)n1		inactive: -15.2%
CCC(CC)C(=O)N1CCc2cc(OC)c(OC)cc2C1COc1ccc(C(=O)OC)cc1 (centres undefined)		inactive: 4.05%
Oc1ccc(C[C@H]2CNC(=S)N2CC2CCCN2C[C@H](Cc2ccc(O)cc2)N2C[C@H](Cc3ccc(O)cc3)N(CC3CCCCC3)C2=S)cc1 (some centres undefined)	inconclusive: 13 µM [falling, partial curve, poor fit]	
Cc1nn(CCc2nn[nH]n2)c2nc(C(F)(F)F)cc(C(F)(F)F)c12		inactive: -7.02%
COc1ccc2nc(N3CCCC3)c(C#N)cc2c1	inconclusive: 18.4 µM [activator, single point]	
CCO/C=N/Nc1nc(C(F)(F)F)nc2c1cnn2Cc1ccccc1		inactive: -19.4%
CCOC(=O)c1ccc(N2C(=O)c3n[nH]c(-c4cccs4)c3C2c2cccc(OC)c2)cc1 (centres undefined)	inconclusive: 29.1 µM [falling, single point]	
CN(C)S(=O)(=O)N(CC(=O)NCCSCc1cccc(Cl)c1)c1ccccc1		inactive: -1.31%
O=S(=O)(Nc1ccc(Cc2ccncc2)cc1)N1CCCC1		inactive: 2.9%
Cc1cc(NC(=O)CCC(=O)N(CC(=O)NCC2CCCO2)c2ccc(F)c(Cl)c2)no1 (centres undefined)	inconclusive: 0.184 µM [activator, full curve, poor fit]	
COc1ccc(-c2nnc(Nc3ccc(OC)c(C(N)=O)c3)c3ccccc23)cc1		inconclusive: -28.8% [activator]
CNC1=C(N(C(C)=O)c2ccc(Br)cc2)C(=O)c2ccccc2C1=O	inconclusive: 29.1 µM [falling, single point]	
CCc1ccc(S(=O)(=O)NCc2nc3cccnc3n2Cc2ccccc2Cl)cc1		inactive: -7.52%
N#CCCN(C(=O)COC(=O)c1cccc(S(=O)(=O)Nc2ccc([N+](=O)[O-])cc2)c1)c1ccccc1	inconclusive: 29.1 µM [falling, single point]	

By substructure, the compounds so far containing a tert-butyl group.
SMILES	Potency	activity change, negative = cytotoxicity
CC(C)(C)C1CCc2c(sc(NC(=O)CSc3ncn[nH]3)c2C#N)C1 (centres undefined)	inconclusive: 20.6 µM [falling, single point]	
COc1cccc(-c2nc(NC(C)(C)C)c3ccccc3n2)c1O	inconclusive: 25.9 µM [falling, single point]	

Of the compounds above, these have bromine:
SMILES	Potency	activity change, negative = cytotoxicity
Cc1ccc(C)c(Nc2nc3c(S(=O)(=O)c4ccc(Br)cc4)nnn3c3ccsc23)c1	inconclusive: 18.4 µM [falling, partial curve, poor fit]	
CNC1=C(N(C(C)=O)c2ccc(Br)cc2)C(=O)c2ccccc2C1=O	inconclusive: 29.1 µM [falling, single point]	
